According to paper PMC9324012:
No constants are given. Whether binding was seen depends on the method and setting. For some assays here: Binding calls can cover weak binding; strength is not graded here. For some assays here: Tags and fused reporters may be left off the sequences shown. For some assays here: Binding seen in cells or lysates may run through a third protein. Blank lines part the entries; values can stand above or below the substance they belong to.

Amino acid sequences for entries named in this document (tags omitted). A change or cut given only in a name is not applied to a line headed by its entry.
UniProt O14744: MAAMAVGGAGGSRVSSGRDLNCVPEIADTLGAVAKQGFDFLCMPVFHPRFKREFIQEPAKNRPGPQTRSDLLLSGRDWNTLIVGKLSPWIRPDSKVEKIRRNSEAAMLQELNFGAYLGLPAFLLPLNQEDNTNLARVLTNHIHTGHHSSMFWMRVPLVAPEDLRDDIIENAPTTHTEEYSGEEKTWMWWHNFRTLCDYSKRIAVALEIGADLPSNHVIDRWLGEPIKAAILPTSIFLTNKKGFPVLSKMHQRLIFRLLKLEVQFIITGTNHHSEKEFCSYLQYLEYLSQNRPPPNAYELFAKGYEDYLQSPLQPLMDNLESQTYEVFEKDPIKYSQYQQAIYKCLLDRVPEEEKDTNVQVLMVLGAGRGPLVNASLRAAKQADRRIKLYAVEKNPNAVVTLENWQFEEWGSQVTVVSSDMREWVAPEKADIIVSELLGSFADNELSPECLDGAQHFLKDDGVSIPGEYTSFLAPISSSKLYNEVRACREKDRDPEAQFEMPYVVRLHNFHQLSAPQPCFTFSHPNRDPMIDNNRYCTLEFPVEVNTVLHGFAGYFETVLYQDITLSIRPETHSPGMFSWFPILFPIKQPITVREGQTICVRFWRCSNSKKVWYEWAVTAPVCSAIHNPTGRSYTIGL
UniProt Q15672: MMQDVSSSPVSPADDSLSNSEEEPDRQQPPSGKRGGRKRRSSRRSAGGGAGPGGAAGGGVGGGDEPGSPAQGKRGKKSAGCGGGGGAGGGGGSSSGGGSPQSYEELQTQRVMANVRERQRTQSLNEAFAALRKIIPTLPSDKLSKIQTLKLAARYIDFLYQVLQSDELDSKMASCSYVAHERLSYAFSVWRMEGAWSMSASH
UniProt Q92769: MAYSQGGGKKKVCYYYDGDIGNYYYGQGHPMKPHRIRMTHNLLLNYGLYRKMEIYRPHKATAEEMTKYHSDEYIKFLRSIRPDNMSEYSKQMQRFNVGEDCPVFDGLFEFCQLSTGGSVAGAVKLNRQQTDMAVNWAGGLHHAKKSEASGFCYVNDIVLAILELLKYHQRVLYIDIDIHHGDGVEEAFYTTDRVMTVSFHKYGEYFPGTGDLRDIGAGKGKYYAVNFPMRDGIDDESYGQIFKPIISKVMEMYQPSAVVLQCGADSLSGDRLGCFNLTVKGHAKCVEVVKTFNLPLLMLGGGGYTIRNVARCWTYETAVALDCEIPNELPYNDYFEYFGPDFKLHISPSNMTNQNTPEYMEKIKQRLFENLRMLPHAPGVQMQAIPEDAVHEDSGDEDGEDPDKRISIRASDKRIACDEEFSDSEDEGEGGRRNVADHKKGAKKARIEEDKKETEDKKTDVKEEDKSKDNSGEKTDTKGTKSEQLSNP

Key:
[1] = target: GST/His-fused PRMT5 purified from E. coli (UniProt O14744); assay: pull-down; GST pull-down: GST-fused proteins mixed with 6*His-fused proteins, all purified from E. coli; glutathione beads 4 h, five washes, Western blot; both purified
[2] = target: GST/His-fused TWIST1 purified from E. coli (UniProt Q15672); assay: as above
[3] = target: T1, GST/His-fused ZEB2 purified from E. coli (UniProt A0JP08); assay: as above
T1 sequence: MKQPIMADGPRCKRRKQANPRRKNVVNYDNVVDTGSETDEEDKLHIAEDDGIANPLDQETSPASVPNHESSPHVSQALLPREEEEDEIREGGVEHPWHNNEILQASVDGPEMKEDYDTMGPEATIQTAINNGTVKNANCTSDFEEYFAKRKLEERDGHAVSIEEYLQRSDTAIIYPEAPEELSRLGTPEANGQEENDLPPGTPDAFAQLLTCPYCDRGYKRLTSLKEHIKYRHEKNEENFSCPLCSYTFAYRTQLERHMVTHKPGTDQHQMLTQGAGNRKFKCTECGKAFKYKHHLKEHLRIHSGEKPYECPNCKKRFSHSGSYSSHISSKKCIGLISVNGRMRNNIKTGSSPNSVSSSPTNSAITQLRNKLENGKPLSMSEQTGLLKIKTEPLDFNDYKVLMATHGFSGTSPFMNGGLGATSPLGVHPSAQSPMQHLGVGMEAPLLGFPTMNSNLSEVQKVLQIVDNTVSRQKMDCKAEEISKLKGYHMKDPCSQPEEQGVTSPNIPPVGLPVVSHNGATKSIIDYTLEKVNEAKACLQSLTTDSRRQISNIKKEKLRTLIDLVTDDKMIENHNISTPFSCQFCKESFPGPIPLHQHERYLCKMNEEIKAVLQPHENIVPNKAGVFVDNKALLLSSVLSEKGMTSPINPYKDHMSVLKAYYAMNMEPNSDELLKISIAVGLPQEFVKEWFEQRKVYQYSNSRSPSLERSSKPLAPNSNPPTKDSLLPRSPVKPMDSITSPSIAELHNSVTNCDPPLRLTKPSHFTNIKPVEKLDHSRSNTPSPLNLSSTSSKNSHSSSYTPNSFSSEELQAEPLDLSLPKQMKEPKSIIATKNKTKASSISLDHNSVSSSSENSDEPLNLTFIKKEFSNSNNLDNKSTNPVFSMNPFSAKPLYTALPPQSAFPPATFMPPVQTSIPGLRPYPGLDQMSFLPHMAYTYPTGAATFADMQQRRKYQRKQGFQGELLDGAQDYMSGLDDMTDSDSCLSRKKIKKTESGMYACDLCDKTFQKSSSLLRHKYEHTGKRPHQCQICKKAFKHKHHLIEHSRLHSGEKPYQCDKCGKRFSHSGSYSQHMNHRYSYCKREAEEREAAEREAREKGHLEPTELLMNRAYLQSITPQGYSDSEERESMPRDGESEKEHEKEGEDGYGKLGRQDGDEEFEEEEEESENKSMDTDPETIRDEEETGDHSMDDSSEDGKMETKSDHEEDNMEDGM

[4] = target: T2, ZEB2 immunoprecipitated from HT29, HCT116 and SW620 cells (UniProt A0JP08); assay: co-IP; immunoprecipitation of ZEB2 from HT29, HCT116 and SW620 cells, Western blot (Supplementary Figure S7)
T2 sequence: T1 sequence

[5] = target: T3, HA-tagged ZEB2 (Zinc finger E-box-binding homeobox 2) (UniProt A0JP08); assay: co-IP; whole-cell lysates of SW480 cells overexpressing ZEB2 (without or with overexpressed TWIST1) immunoprecipitated for ZEB2, Western blot of the precipitates; IgG as negative control
T3 sequence: T1 sequence

binding [1]: no binding
Substance: GST/His-fused HDAC2 purified from E. coli (from UniProt Q92769 1-488) (enzyme)

binding [2]: no binding | binding [3]: binds
Substance: GST/His-fused PRMT5 purified from E. coli (from UniProt O14744) (enzyme)

binding [4]: binds | binding [5]: binds
Substance: Protein arginine N-methyltransferase 5 (PRMT5), endogenous (from UniProt O14744) (enzyme)
